Test results: US11566231B2, “Physiology and pathophysiology of human gut: intestine-on-chip” (EMULATE, INC., priority 2017, dated 2023)
For at least one compound, name, drawing or mass did not settle the structure.

System: L-cells
Assay: GLP-1 release from L-cells in Colon On-Chip
Format: cell-based, human
Settings: 30 μM deoxycholic acid and stretching

## C[C@H](CCC(=O)O)[C@H]1CC[C@H]2[C@@H]3CC[C@@H]4C[C@H](O)CC[C@]4(C)[C@H]3C[C@H](O)[C@]12C [deoxycholic acid, Deoxycholic acid]
  GLP-1 release into the vascular channel: release GLP-1 into the vascular channel
